# Results are given in words; binding and its absence hold for the method and conditions named. Binding calls can cover weak binding; strength is not graded here. Where a sequence is shown, tags or fusion partners need not be part of it.
# Key:
# [1] = target: T1, NtCDKG;2 (N. tabacum Cyclin-Dependent Kinase G;2), fused to the GAL4 DNA binding domain (Nicotiana tabacum); assay: two-hybrid; screen of a N. tabacum stigma/style cDNA library with NtCDKG;2 in pDEST32 as bait; positive clones Sanger-sequenced
# T1 sequence: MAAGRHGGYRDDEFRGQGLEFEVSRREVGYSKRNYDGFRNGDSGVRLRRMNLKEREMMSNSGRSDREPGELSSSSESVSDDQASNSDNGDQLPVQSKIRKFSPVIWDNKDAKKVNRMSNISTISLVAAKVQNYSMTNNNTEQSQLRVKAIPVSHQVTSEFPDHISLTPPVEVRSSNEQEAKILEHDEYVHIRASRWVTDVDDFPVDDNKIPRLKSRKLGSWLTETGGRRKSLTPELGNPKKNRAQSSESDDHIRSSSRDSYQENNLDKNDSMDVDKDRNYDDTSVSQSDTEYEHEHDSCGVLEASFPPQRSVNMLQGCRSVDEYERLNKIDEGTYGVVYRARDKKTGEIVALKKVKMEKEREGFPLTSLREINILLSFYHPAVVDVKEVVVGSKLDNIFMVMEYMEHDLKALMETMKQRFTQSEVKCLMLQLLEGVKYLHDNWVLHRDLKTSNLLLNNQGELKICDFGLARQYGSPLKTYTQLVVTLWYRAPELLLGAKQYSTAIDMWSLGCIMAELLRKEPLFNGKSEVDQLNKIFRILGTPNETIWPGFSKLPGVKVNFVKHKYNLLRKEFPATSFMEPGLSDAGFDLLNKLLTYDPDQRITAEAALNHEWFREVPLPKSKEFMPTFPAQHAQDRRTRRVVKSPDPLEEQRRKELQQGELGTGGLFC
# [2] = target: T1, NtCDKG;2 (N. tabacum Cyclin-Dependent Kinase G;2), fused to the GAL4 DNA binding domain (Nicotiana tabacum); assay: two-hybrid; pairwise (binary) test in yeast PJ69-4α; DBD-NtCDKG;2 (pDEST32) with AD fusions (pDEST22); growth on SD without leucine, tryptophan and histidine, 30 °C, 2-3 days; 1 mM 3-amino-1,2,4-triazole for NtRanBP1
substance,measurement,setting,value
"Ntβ-tubulin, fused to the GAL4 activation domain (Nicotiana tabacum)",binding,[1],binds
same,binding,[2],binds
